Data as given in PubChem BioAssay AID1508597 (Cure First, 2020).
This is an unselected part of the about 2,100 reagents, under one of the conditions tested. 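Calls flag viability under 80% in either arm, not effects specific to rucaparib; the reference for percent is not stated.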 A number with no mark means an inactive call. A reagent listed more than once was tested more than once; the source does not tell the runs apart. Not stated in the record: the 100% reference.

Screen: 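Survival screen with siRNA in ovarian cancer cells derived from patients, with or without rucaparib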 (primary screen)
Cells: human ovarian carcinoma lines grown from tumours: OCI-P5x (papillary serous) and OCI-C5x (clear cell)
Reagent: siRNA pool against human genes, 1.25 pmol siRNA per well
Duration: 72 h or 96 h, depending on the cell culture
Conditions: rucaparib 20 µM (about IC30) or vehicle, present until read-out
Rucaparib or vehicle: Rucaparib
Cell line: OCI-C5x (clear cell)
Read-out: 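ATP luminescence measured at 72 or 96 h according to the culture, then normalised and expressed as percent viability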
Reading the numbers: viability, normalised: higher = more viable cells remaining
Active means: 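a well counts as a hit if its normalised viability is under 80 percent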
Calls: active = viability under 80%; inactive = viability 80% or more

ASCC3, technical replicate 1 — viability, normalised (%): 59.8 (active)
ASCC3, technical replicate 2 — viability, normalised (%): 39.1 (active)
ASCC3, technical replicate 3 — viability, normalised (%): 54.7 (active)
RAD1, technical replicate 1 — viability, normalised (%): 36.8 (active)
RAD1, technical replicate 2 — viability, normalised (%): 57.4 (active)
RAD1, technical replicate 3 — viability, normalised (%): 51.8 (active)
SPOCK2, technical replicate 1 — viability, normalised (%): 48 (active)
SPOCK2, technical replicate 2 — viability, normalised (%): 35.7 (active)
SPOCK2, technical replicate 3 — viability, normalised (%): 35.9 (active)
H4C3, technical replicate 1 — viability, normalised (%): 46.2 (active)
H4C3, technical replicate 2 — viability, normalised (%): 37.6 (active)
H4C3, technical replicate 3 — viability, normalised (%): 39.9 (active)
SUMO1, technical replicate 1 — viability, normalised (%): 48.5 (active)
SUMO1, technical replicate 2 — viability, normalised (%): 38.2 (active)
SUMO1, technical replicate 3 — viability, normalised (%): 44.2 (active)
EP300, technical replicate 1 — viability, normalised (%): 27.1 (active)
EP300, technical replicate 1 — viability, normalised (%): 68 (active)
EP300, technical replicate 2 — viability, normalised (%): 80.4
EP300, technical replicate 2 — viability, normalised (%): 20.6 (active)
EP300, technical replicate 3 — viability, normalised (%): 30.2 (active)
EP300, technical replicate 3 — viability, normalised (%): 45.3 (active)
POU1F1, technical replicate 1 — viability, normalised (%): 45.7 (active)
POU1F1, technical replicate 2 — viability, normalised (%): 37 (active)
POU1F1, technical replicate 3 — viability, normalised (%): 49.1 (active)
PET117, technical replicate 1 — viability, normalised (%): 41.6 (active)
PET117, technical replicate 2 — viability, normalised (%): 42.4 (active)
PET117, technical replicate 3 — viability, normalised (%): 41.1 (active)
TRIB1, technical replicate 1 — viability, normalised (%): 63.9 (active)
TRIB1, technical replicate 1 — viability, normalised (%): 41.1 (active)
TRIB1, technical replicate 2 — viability, normalised (%): 54.8 (active)
TRIB1, technical replicate 2 — viability, normalised (%): 41.9 (active)
TRIB1, technical replicate 3 — viability, normalised (%): 43.5 (active)
TRIB1, technical replicate 3 — viability, normalised (%): 29.5 (active)

5 successive records from above, for reference:
RAD1, technical replicate 1 — viability, normalised (%): 36.8 (active)
RAD1, technical replicate 2 — viability, normalised (%): 57.4 (active)
RAD1, technical replicate 3 — viability, normalised (%): 51.8 (active)
SPOCK2, technical replicate 1 — viability, normalised (%): 48 (active)
SPOCK2, technical replicate 2 — viability, normalised (%): 35.7 (active)
